{"source": "PubChem BioAssay AID493014", "about": "(National Center for Advancing Translational Sciences (NCATS), 2011)", "note": "The campaign covered roughly 340,000 compounds. About 170 (0.05%) were called active. The inconclusive results got no clear call from the source; some entries with a clear call stand among them for comparison. Calls follow the shape of the dose curve; as a rule, active = well fitted inhibition curve with a large enough effect in the signal ratio, with a control signal flat (not every such curve was filed as active); inconclusive = small, poorly fitted or top-dose-only effect, or effect the other way, or a change in a side signal; inactive = flat fitted curve, though single readings scatter; the % refers to the signal ratio. Where the call is inconclusive, the potency comes from a doubtful curve fit. Potency is read from the fitted curve at half-maximal effect."}
{"assay": "qHTS Assay to Find Inhibitors of Chronic Active B-Cell Receptor Signaling;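 as to activity change, negative = inhibition: plate controls were basal doxycycline-induced cells for no effect and cells given 10 µM MG132 for full effect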", "settings": "ABC-DLBCL IkBa-CBG/CBR reporter, luminescence ratio (green luciferase fused to IkBa over red control in TMD8 lymphoma cells), 4 h; activity change, negative = inhibition: at 46.1 µM (top of the series)", "procedure,_shortened": "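Concentration-response series (up to 46 uM) were applied to TMD8 dual-reporter cells for 4 h at 37C with doxycycline. Green/red ratio, after filter-overlap correction, defined %Activity; red signal alone was normalised to basal cells and zero luminescence.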"}
{"compound": "O=C1C=C(c2ccc3c(c2)OCO3)C[C@@H](c2ccc3c(c2)OCO3)C1", "activity change, negative = inhibition": "inactive"}
{"compound": "O=C(COc1ccccc1)n1nc(-c2ccc(Cl)cc2)nc1NCc1ccco1", "Potency": "inconclusive: 29.1 µM [falling, single point]"}
{"compound": "O=C(Nc1sc2c(c1C(=O)O)CCC2)c1ccc(F)cc1", "activity change, negative = inhibition": "inconclusive: -198%"}
{"compound": "NC(N)=NC(N)=Nc1cccc2ccccc12", "activity change, negative = inhibition": "inactive"}
{"compound": "Cc1cc2c(cc1C)N(C(=O)CSC1=NCCS1)C(C)(C)c1ssc(=S)c1-2", "activity change, negative = inhibition": "inconclusive: 4.13%"}
{"compound": "C/C(=N\\Nc1ccccn1)c1ccc(C(C)C)cc1", "activity change, negative = inhibition": "inconclusive: -24.3%"}
{"compound": "O=C(Cc1ccccc1F)NNC(=O)c1ccncc1", "activity change, negative = inhibition": "inactive"}
{"compound": "CCCCn1nnc(NC(=S)NC(=O)c2ccc(-c3cccc(Cl)c3Cl)o2)n1", "activity change, negative = inhibition": "inactive"}
{"compound": "COc1ccccc1C(=O)Nc1ccc(C)cc1C(=O)c1ccccc1", "activity change, negative = inhibition": "inconclusive: 14%"}
{"compound": "O=S(=O)(Nc1cc(F)ccc1F)c1cccc2nsnc12", "activity change, negative = inhibition": "inconclusive: 5.5%"}
{"compound": "Cc1cc2c(cc1S(=O)(=O)Nc1cccc(C)c1C)n(C)c(=O)c(=O)n2C", "activity change, negative = inhibition": "inactive"}
{"compound": "COc1ccccc1NC(=O)CSc1nc(O)cc(=O)n1-c1ccccc1OC", "Potency": "inconclusive: 2 µM [rising, full curve]"}
{"compound": "O=C(CN1C(=O)NC2(CCCCC2)C1=O)N1CCN(S(=O)(=O)c2ccc(Cl)s2)CC1", "activity change, negative = inhibition": "inactive"}
{"compound": "O=C1Nc2c(Br)cccc2C1=O", "activity change, negative = inhibition": "inconclusive: -15%"}
{"compound": "CCCCSc1nc(C)cc(SCC(=O)N/N=C/c2ccccc2)n1", "activity change, negative = inhibition": "inconclusive: 6.07%"}
{"compound": "COc1ccc(CCNC(=S)NCc2ccc(Cl)c(Cl)c2)cc1OC", "activity change, negative = inhibition": "inconclusive: -15%"}
{"compound": "CCN1C(=O)/C(=C/C=C2/SCCN2C)SC1=S", "activity change, negative = inhibition": "inconclusive: 12.1%"}
{"compound": "O=C(OCc1nnc(-c2ccc(Cl)cc2)o1)C12CC3CC(CC(O)(C3)C1)C2", "activity change, negative = inhibition": "inactive"}
{"compound": "Nc1ccc(C(=O)OCC(=O)N2CCN(C(=O)c3ccco3)CC2)cc1[N+](=O)[O-]", "Potency": "inconclusive: 18.4 µM [falling, single point]"}
{"compound": "O=C(CSc1ccc(F)cc1)N1CCC(c2nc3ccccc3s2)CC1", "activity change, negative = inhibition": "inconclusive: 1.31%"}
{"compound": "O=c1[nH]c(C2CCN(S(=O)(=O)c3ccc(C(F)(F)F)cc3)CC2)nc2c1nnn2Cc1ccccc1", "activity change, negative = inhibition": "inactive"}
{"compound": "CCCCS(=O)(=O)c1sc2nc(C)cc(C)c2c1N", "activity change, negative = inhibition": "inconclusive: 3.56%"}
{"compound": "O=c1oc2c(O)cccc2cc1-c1nc2ccccc2[nH]1", "Potency": "inconclusive: 12.6 µM [falling, partial curve]"}
{"compound": "CN(Cc1ccccc1F)C(=O)CCNC(=O)c1ccc(C(C)(C)C)cc1", "activity change, negative = inhibition": "inactive"}
{"compound": "O=C(C[n+]1ccccc1)Nc1ccccc1C(F)(F)F", "activity change, negative = inhibition": "inactive"}
{"compound": "Cc1ccccc1C(=O)Nc1cccc(-c2ccc(N3CCOCC3)nn2)c1", "activity change, negative = inhibition": "inconclusive: 2.1%"}
{"compound": "COc1ccc(/C=C(/NC(=O)c2ccccc2)c2nc3ccccc3[nH]2)cc1OC", "activity change, negative = inhibition": "inactive"}
{"compound": "Cc1ccc2nc3c(cc2c1)c(NC(=O)C1CCCO1)nn3CC(C)C", "note": "(stereo not drawn)", "activity change, negative = inhibition": "inactive"}
{"compound": "C/C(=N\\NC(=O)c1cccc(N2CCCC2=O)c1)c1ccc(N)cc1", "Potency": "inconclusive: 20 µM [falling, partial curve, poor fit]"}
{"compound": "O=C(c1c(F)cccc1F)N1CCCC(c2nc(-c3ccc(Cl)cc3)no2)C1", "note": "(stereo not drawn)", "activity change, negative = inhibition": "inconclusive: -10.5%"}
{"compound": "C=CC[C@]12CCc3sccc3C1N(c1ccc(C(=O)OCC)cc1)C2=O", "note": "(stereo partly drawn)", "Potency": "inconclusive: 25.9 µM [rising, partial curve, poor fit]"}
{"compound": "COc1ccc(-c2noc(CCCC(=O)Nc3cccnc3)n2)cc1OC", "activity change, negative = inhibition": "inconclusive: -13.7%"}
{"compound": "CC(=O)OCC(=O)[C@H]1CC[C@H]2[C@@H]3CCC4=CC(=O)CC[C@]4(C)[C@H]3CC[C@]12C", "activity change, negative = inhibition": "inconclusive: -13.5%"}
{"compound": "COc1ccccc1C(=O)Nc1nnc(-c2ccco2)s1", "Potency": "inconclusive: 4.61 µM [falling, partial curve]"}
{"compound": "CN(C)c1ccc(/C=N/NC(=O)c2ccccn2)cc1", "Potency": "inconclusive: 4.47 µM [rising, full curve, poor fit]"}
{"compound": "CNC(=S)NC1CC2CCCC(C1)N2Cc1ccc(C)cc1", "note": "(stereo not drawn)", "activity change, negative = inhibition": "inactive"}
{"compound": "Cn1c([N+](=O)[O-])cnc1N1CCN(c2nncs2)C1=O", "activity change, negative = inhibition": "inactive"}
{"compound": "COc1ccc(O)c(CN2CCCC(N3CCN(c4ccc(F)cc4)CC3)C2)c1", "note": "(stereo not drawn)", "activity change, negative = inhibition": "inactive"}
{"compound": "O=C(NCc1ccco1)/C(=C/C=C\\c1ccccc1)NC(=O)c1ccc(Br)o1", "activity change, negative = inhibition": "inactive"}
{"compound": "N/C(=N\\OC(=O)c1ccc2ccccc2c1)c1ccccn1", "Potency": "inconclusive: 5.62 µM [rising, single point]"}
{"compound": "O=C(CCCc1nc2ccccc2s1)NCc1ccccc1", "activity change, negative = inhibition": "inconclusive: 0.0653%"}
{"compound": "CCNC(=O)/C(C#N)=C/c1c(N2CCN(Cc3ccc4c(c3)OCO4)CC2)nc2c(C)cccn2c1=O", "Potency": "inconclusive: 14.6 µM [rising, partial curve, poor fit]"}
{"compound": "O=C(OCc1ccc([N+](=O)[O-])cc1)c1cc(S(=O)(=O)N2CCCCC2)ccc1N1CCOCC1", "activity change, negative = inhibition": "inactive"}
{"compound": "O=[N+]([O-])c1ccc2nc(-[n+]3c(-c4ccccc4)cc(-c4ccccc4)cc3-c3ccccc3)[nH]c2c1", "activity change, negative = inhibition": "inconclusive: -0.652%"}
{"compound": "CCOC(=O)c1c(S(=O)(=O)NCCc2ccc(OC)c(OC)c2)c(C)n(C)c1C", "activity change, negative = inhibition": "inactive"}
{"compound": "O=C(CCCN1C(=O)CCC1=O)Nc1ccc2c(c1)OCO2", "activity change, negative = inhibition": "inconclusive: 2.77%"}
{"compound": "CCN(C(=O)COC(=O)c1cc(=O)c2ccccc2o1)c1c(N)n(Cc2ccccc2)c(=O)[nH]c1=O", "activity change, negative = inhibition": "inconclusive: 12.8%"}
{"compound": "CN1CC(c2ccccc2)C(c2ccc(Cl)cc2)=N1", "note": "(stereo not drawn)", "activity change, negative = inhibition": "inconclusive: 4.49%"}
{"compound": "N#C/C(=C\\c1cn(-c2ccccc2)nc1-c1ccccc1)S(=O)(=O)c1ccccc1", "activity change, negative = inhibition": "inconclusive: -5.55%"}
{"compound": "N#CC(=NCc1cccnc1)C1=C(O)c2ccccc2C1=O", "Potency": "inconclusive: 17.8 µM [falling, single point]"}
{"compound": "Cc1nc(-c2cc(-c3ccc(Cl)cc3)no2)cs1", "activity change, negative = inhibition": "inconclusive: -4.88%"}
{"compound": "CCOC(=O)NC(CC(=O)O)c1ccc(OC)cc1", "note": "(stereo not drawn)", "activity change, negative = inhibition": "inconclusive: 0.589%"}
{"compound": "Cc1ccc(NC(=O)c2ccc3c(c2)C(=O)N(Cc2cccnc2)C3=O)c(C)c1", "activity change, negative = inhibition": "inconclusive: 3.73%"}
